These are yes or no findings as the source states them, for the method shown. For some assays here: Binding seen in cells or lysates may run through a third protein. Some entries that bind do so weakly or less than the wild type.

The chains behind the UniProt entries cited, without tags or fusion partners.
UniProt P10275: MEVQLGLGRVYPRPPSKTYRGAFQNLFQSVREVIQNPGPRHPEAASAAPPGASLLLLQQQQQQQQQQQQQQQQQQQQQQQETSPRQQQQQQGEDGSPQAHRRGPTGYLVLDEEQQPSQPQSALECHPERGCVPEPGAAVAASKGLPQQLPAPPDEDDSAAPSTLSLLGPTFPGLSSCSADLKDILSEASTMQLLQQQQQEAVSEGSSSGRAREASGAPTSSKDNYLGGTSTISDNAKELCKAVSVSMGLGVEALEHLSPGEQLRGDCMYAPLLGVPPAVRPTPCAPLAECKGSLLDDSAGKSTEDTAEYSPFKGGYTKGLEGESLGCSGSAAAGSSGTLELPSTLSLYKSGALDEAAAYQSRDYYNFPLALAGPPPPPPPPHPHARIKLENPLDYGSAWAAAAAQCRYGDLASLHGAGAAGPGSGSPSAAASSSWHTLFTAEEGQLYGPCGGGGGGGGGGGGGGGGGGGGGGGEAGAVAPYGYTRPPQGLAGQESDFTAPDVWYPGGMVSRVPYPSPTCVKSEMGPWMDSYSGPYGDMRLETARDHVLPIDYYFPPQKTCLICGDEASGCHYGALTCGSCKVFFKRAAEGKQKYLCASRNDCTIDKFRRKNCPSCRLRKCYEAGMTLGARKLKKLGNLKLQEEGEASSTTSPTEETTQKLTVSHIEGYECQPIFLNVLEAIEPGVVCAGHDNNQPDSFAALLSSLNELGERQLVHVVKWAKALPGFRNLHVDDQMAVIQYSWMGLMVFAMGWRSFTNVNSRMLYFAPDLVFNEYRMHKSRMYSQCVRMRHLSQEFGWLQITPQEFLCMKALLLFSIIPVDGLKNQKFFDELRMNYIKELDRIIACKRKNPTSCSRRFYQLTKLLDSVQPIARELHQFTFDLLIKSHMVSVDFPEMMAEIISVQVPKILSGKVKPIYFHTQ
UniProt O96028: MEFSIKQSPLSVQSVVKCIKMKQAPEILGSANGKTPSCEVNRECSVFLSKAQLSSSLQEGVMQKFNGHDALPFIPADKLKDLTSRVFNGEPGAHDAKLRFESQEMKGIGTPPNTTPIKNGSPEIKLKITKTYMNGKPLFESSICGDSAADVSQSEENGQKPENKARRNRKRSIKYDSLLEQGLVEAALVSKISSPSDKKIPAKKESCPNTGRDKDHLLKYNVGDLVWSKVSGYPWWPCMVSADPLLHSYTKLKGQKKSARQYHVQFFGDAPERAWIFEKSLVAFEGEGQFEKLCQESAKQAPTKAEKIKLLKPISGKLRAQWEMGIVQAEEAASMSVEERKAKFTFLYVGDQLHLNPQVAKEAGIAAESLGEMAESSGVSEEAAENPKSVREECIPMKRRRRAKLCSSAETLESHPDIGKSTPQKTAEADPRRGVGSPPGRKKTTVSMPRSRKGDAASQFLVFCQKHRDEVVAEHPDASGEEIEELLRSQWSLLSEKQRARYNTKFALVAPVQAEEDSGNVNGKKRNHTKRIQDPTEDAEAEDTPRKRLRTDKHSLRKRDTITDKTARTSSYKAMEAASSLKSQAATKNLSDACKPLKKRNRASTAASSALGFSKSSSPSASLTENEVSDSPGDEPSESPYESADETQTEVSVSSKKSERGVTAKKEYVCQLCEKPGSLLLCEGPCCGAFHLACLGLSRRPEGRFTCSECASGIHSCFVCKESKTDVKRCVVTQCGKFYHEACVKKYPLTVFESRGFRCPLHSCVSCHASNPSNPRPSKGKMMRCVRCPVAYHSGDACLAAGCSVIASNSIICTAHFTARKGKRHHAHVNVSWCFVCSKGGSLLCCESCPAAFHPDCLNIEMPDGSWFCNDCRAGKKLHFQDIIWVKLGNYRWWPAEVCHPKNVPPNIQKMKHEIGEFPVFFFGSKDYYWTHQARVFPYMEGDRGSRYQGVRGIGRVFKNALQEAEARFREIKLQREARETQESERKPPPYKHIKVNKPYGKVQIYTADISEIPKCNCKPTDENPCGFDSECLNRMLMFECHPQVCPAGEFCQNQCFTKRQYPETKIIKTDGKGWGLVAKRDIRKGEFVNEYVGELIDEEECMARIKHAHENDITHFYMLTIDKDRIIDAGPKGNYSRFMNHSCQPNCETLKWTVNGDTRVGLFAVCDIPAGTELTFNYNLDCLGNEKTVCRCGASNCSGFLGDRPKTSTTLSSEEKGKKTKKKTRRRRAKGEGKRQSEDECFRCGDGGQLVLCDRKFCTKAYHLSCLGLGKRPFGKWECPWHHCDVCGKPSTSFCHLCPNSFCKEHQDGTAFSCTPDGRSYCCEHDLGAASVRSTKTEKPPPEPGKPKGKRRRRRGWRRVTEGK

Assay [1] deals with Androgen receptor (human (endogenous in prostate cancer cell lines)) (UniProt P10275). The assay can be described thus: SEC; size-exclusion chromatography fractions of nuclear lysate from wild-type LNCaP cells, immunoblotted.
The target is the same in assay [2]. The assay can be described thus: co-IP; coimmunoprecipitation of endogenous AR in prostate cancer cells, immunoblot. A general note: In western blotting, separated proteins are transferred to a membrane and probed.

In the case of “nuclear receptor binding SET domain protein 2 (from UniProt O96028 1-1365)”, the binding result in assay [1] and in assay [2] was “binds” each time.

Values taken from article PMC11525188.
